These are yes or no findings as the source states them, for the method shown. Binding can be weak; no strength is given.
Columns and labels:
[1] = molecular target: human integrin αvβ3 (human); test: atomic force microscopy; αvβ3 integrin covalently bound on GA-modified silicon, blocked with BSA; 100 μg/mL LACT in PBS for 1 h; topography in non-contact mode; both purified
[2] = molecular target: human integrin αvβ3 (human); test: ToF-SIMS; αvβ3 integrin covalently bound on GA-modified silicon, blocked with BSA; 100 μg/mL LACT in PBS for 1 h; asparagine ion C4H4NO2+ as the signal of LACT; both purified

binding [1]: binds
binding [2]: binds
B1: Human recombinant lactadherin (LACT) (protein, UniProt Q08431 24-387)
chain: LDICSKNPCHNGGLCEEISQEVRGDVFPSYTCTCLKGYAGNHCETKCVEPLGLENGNIANSQIAASSVRVTFLGLQHWVPELARLNRAGMVNAWTPSSNDDNPWIQVNLLRRMWVTGVVTQGASRLASHEYLKAFKVAYSLNGHEFDFIHDVNKKHKEFVGNWNKNAVHVNLFETPVEAQYVRLYPTSCHTACTLRFELLGCELNGCANPLGLKNNSIPDKQITASSSYKTWGLHLFSWNPSYARLDKQGNFNAWVAGSYGNDQWLQVDLGSSKEVTGIITQGARNFGSVQFVASYKVAYSNDSANWTEYQDPRTGSSKIFPGNWDNHSHKKNLFETPILARYVRILPVAWHNRIALRLELLGC
